Experimental data taken from patent publication US20200332005A1.

Key:
N-terminal of CD73 = assay: plate binding assay, axis Binding activity (OD450) against Ab (µg/ml); panel Binding to N-terminal of CD73
cyno CD73 (cyno) [1] = assay: in vitro biochemical assay (FIG. 21)
cyno CD73 (cyno) [2] = assay: in vitro biochemical assay

binding (N-terminal of CD73): no binding (tested: about 3 µg/ml) | binding (cyno CD73 (cyno) [1]): binds | binding (cyno CD73 (cyno) [2]): binds
B1: Hu101-28 (antibody, V domains shown)
VH: EVQLQESGPGLVKPSETLSLTCAVSGYSITSGYYWNWIRQPPGKKLEWMGYINYGGSNGYNPSLKSRITISRDTSKNQFSLKLSSVTAADTAVYYCARDYDAYYEALDDWGQGTTVTVSS
VL: EIVLSQSPATLSLSPGERATLSCRASSRVNYMHWYQQKPGQSPRPWISATSNLASGVPARFSGSGSGTSYTLTISSLEPEDFAVYYCQQWSSNPPTFGGGTKVEIK

No constants are given. Whether binding was seen depends on the method and setting. For part of these data: Binding calls can cover weak binding; strength is not graded here.
